At least one compound was matched to its structure with a doubt left.
Assay: Powdered drug mixed with Ocean® and rubbed into the skin over arthritic joints of patients
Format: in vivo, human
Text: The present invention is a method for delivering drugs transdermally, especially insoluble drugs. The powdered form of a drug, such as that contained in the capsules of Vioxx® and Celebrex®, was mixed with Ocean® to form a mixture. The mixture was then rubbed into the skin at the needed location, for example, an arthritic joint, by volunteer subjects suffering from arthritis in different joints. The Vioxx® or Celebrex® suspension in Ocean® then penetrated the outer layer of the skin, traveled through the stratum corneum, dermis, and hypodermis, and entered the target tissue. […] Therefore, the present invention provides a method of delivery for NSAIDs, such as Vioxx® and Celebrex®, that can inhibit COX-2 at the inflammation site, without ever entering the GI tract, relieving the patient of any GI toxicity that may be caused by the drug.
In summary, the method of this patent for drug delivery has been tried by a few patients with severe arthritis. These patients were unable to continue using either Vioxx® or Celebrex® because of the severe GI toxicity those drugs caused. The patients opened the capsules of the drugs, mixed the powdered drug with Ocean®, and applied the solution to the skin of the arthritic area.

Cc1ccc(-c2cc(C(F)(F)F)nn2-c2ccc(S(N)(=O)=O)cc2)cc1 [Celebrex®, 4-[5-(4-methylphenyl)-3-(triflouromethyl)-1 H-pyrazol-1-yl] benzenesulfonamide]
relief from arthritis (patients with severe arthritis, powdered drug from capsules mixed with Ocean®, applied to skin of the arthritic area): relief from their arthritis | time after application until pain and symptoms are reduced (suspension in Ocean® rubbed into the skin closest to the affected arthritic joint, volunteer subjects): Within minutes
